According to the supplement of paper PMC10849652:
The other results are listed elsewhere or left out.

Chains of the proteins cited; added tags and fusions are not shown. Lines headed by an entry give the natural chain unless they say otherwise; changes in a name come on top.
UniProt Q8N2I9: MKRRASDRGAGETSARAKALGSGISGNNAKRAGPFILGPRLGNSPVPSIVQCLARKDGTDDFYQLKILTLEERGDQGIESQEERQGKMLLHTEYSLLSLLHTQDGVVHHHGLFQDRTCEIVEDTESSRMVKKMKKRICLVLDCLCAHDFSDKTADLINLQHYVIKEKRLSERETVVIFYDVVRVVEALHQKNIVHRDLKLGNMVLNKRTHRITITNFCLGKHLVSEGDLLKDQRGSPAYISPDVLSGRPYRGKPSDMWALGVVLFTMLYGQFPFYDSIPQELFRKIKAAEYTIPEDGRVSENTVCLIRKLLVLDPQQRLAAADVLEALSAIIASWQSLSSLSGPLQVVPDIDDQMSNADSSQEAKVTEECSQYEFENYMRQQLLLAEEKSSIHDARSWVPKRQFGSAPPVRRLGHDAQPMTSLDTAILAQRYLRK
UniProt Q6UWL2: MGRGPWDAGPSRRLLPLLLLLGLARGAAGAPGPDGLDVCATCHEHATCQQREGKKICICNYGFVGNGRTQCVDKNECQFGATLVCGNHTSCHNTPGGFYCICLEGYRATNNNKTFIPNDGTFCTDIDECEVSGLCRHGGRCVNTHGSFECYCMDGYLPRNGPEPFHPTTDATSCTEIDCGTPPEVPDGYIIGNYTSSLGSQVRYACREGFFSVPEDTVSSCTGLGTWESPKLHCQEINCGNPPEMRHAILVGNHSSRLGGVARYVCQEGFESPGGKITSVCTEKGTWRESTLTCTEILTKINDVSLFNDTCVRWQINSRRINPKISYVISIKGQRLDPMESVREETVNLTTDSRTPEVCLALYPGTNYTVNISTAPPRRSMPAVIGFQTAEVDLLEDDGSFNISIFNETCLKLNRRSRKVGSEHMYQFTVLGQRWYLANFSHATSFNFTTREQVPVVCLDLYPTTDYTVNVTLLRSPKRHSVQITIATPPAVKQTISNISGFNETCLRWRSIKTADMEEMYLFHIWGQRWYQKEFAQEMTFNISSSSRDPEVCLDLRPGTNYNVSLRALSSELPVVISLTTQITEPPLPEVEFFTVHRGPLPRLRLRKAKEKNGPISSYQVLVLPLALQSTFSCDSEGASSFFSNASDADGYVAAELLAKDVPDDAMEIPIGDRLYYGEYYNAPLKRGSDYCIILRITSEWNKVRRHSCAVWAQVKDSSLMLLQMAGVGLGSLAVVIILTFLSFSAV
UniProt Q9C0B7: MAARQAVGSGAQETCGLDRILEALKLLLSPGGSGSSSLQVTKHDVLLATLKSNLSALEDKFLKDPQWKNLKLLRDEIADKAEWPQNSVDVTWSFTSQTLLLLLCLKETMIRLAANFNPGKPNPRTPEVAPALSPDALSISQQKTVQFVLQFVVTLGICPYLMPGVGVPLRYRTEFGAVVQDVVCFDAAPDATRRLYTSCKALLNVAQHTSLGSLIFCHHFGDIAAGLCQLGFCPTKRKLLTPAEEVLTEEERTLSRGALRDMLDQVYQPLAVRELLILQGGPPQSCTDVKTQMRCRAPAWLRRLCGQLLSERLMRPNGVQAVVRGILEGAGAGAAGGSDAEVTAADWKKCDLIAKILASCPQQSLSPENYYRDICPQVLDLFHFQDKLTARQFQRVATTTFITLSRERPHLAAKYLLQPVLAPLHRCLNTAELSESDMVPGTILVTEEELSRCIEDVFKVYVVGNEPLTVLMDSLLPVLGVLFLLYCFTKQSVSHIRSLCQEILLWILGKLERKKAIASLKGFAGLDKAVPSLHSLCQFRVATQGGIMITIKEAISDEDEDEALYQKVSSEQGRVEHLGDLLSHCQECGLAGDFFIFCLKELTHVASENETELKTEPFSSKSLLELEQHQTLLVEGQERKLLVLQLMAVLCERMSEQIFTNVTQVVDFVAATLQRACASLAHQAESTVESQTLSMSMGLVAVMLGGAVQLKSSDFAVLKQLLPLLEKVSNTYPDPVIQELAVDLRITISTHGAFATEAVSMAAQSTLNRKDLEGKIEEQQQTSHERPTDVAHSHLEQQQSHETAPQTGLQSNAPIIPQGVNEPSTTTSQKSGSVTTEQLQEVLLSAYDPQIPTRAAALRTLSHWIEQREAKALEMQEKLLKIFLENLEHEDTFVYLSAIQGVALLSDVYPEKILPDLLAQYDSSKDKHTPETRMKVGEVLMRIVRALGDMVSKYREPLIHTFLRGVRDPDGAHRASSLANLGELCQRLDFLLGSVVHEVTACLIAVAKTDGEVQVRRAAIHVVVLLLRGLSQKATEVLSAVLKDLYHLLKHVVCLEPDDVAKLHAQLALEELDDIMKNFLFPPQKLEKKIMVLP
UniProt Q15543, whole entry, looked up: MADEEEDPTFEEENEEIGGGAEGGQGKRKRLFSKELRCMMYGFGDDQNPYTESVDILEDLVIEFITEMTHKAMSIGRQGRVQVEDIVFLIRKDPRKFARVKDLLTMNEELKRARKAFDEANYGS
UniProt Q9Y2K9: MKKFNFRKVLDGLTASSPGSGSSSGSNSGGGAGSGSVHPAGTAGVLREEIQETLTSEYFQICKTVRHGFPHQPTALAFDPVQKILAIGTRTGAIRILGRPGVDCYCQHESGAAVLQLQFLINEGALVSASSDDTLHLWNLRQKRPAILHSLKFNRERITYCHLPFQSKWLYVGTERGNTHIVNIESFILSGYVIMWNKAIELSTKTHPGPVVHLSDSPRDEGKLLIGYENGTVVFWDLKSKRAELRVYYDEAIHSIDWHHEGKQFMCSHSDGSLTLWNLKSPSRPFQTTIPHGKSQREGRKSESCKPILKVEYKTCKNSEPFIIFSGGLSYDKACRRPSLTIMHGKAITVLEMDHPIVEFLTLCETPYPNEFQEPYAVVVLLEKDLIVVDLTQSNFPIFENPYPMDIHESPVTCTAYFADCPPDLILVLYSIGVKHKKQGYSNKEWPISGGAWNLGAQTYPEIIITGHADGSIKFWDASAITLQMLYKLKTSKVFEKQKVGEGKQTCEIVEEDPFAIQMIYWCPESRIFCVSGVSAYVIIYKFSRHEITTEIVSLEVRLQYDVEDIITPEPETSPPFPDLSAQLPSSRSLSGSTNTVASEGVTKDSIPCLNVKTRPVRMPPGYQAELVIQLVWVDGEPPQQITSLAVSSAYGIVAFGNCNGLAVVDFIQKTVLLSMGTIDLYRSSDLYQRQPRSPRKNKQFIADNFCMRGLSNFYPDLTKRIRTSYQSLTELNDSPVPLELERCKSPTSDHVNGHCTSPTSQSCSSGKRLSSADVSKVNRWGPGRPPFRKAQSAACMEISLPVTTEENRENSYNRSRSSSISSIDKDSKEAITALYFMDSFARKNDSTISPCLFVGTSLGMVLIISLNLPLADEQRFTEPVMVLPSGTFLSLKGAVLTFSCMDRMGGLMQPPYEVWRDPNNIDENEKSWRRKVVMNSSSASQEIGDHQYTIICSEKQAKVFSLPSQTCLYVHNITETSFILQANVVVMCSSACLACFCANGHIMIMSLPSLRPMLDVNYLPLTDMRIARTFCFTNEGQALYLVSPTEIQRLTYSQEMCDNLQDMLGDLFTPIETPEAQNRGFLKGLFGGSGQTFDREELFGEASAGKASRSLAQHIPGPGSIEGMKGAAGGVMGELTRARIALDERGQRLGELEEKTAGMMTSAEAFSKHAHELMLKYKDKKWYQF
UniProt Q15022: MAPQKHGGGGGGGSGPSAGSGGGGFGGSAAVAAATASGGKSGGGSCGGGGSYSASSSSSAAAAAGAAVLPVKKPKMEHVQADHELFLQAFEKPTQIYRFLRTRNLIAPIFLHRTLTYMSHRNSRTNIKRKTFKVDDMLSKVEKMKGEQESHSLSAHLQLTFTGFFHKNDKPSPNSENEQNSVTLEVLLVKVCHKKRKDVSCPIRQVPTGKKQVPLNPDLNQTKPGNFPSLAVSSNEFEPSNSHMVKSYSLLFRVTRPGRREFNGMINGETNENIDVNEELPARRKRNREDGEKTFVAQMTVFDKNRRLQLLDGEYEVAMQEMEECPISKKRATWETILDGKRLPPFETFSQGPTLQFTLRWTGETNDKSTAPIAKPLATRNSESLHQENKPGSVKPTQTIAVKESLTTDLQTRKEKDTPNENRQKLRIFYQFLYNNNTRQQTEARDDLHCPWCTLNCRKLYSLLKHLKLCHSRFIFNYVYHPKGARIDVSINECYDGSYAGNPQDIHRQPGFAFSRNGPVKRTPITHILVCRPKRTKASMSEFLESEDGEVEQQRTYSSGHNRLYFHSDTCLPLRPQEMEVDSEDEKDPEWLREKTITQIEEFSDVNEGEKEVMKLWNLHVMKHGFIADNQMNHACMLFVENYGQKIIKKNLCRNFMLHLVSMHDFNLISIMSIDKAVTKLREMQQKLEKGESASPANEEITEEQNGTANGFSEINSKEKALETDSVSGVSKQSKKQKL
UniProt O60347: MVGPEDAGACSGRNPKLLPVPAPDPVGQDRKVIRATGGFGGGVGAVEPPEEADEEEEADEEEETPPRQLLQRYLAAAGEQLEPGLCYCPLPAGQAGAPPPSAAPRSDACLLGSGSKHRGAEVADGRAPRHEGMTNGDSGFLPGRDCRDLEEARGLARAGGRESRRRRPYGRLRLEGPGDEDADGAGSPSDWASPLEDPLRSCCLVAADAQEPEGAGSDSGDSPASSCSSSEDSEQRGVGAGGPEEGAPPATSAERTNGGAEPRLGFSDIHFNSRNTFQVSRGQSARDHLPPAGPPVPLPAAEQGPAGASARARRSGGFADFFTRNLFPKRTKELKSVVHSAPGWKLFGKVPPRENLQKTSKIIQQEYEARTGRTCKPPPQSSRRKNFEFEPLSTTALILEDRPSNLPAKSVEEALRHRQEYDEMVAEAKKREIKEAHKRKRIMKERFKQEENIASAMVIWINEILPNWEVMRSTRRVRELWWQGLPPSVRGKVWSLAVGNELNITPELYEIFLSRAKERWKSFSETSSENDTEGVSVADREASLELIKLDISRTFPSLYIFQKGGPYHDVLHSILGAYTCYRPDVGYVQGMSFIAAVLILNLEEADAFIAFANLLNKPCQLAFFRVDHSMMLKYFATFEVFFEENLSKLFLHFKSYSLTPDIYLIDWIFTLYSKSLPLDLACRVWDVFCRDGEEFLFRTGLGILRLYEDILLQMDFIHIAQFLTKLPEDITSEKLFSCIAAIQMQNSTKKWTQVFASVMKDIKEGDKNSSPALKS
UniProt Q1ZZU3: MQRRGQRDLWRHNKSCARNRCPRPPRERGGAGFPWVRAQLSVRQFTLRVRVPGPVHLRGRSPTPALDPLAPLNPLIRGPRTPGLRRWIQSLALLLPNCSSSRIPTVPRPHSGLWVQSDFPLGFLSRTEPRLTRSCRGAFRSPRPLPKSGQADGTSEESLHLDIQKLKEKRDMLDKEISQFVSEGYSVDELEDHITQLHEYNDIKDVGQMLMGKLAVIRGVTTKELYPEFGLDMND
UniProt Q8WXE9: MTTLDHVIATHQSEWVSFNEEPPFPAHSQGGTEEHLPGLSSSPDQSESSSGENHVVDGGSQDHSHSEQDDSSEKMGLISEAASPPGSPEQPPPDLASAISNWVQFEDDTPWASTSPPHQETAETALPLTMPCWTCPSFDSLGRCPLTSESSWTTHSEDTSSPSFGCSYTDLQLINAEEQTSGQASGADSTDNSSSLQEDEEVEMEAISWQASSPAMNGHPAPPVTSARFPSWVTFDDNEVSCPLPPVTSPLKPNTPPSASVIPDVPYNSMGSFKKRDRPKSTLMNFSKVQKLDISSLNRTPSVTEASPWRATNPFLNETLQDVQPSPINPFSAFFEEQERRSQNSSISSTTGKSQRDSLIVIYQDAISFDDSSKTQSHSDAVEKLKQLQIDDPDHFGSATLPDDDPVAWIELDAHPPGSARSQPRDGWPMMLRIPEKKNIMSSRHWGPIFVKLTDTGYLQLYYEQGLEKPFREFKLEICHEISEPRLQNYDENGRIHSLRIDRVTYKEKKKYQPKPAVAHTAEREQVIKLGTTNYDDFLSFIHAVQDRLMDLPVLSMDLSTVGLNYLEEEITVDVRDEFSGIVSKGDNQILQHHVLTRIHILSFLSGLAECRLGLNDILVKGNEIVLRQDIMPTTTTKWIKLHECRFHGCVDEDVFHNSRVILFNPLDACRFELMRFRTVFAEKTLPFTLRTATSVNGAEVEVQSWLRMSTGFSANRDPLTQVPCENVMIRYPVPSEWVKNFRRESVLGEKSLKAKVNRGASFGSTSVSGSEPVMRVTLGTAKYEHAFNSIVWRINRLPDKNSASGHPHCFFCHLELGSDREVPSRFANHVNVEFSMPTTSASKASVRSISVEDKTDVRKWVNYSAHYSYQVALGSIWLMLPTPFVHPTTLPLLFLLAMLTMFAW
UniProt P08247, whole entry, looked up: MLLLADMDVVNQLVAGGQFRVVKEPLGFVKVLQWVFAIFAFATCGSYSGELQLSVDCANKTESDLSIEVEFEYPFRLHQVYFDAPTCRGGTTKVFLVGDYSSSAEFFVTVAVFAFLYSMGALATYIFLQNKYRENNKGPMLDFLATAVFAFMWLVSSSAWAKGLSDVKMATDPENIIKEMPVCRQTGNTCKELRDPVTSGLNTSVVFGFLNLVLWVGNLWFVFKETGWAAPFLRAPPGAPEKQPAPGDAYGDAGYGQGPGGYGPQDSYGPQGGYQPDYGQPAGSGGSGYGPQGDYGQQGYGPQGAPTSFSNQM

How the values were obtained:
Experiment in all cases: log2 fold change, soluble protein after heating vs DMSO (PISA); higher = thermal stabilisation; K562 cells, 10 uM, 30 min; active = over 0.2 and 3.5 SD of the protein, either way, in both replicates (recomputed)
[1] = compound: NCC(=O)Nc1ccc(-n2nc(C(F)(F)F)cc2-c2ccc3c(ccc4ccccc43)c2)cc1
Summary of the method: (§1)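 Aliquots of K562 cells (2×10^6 cells/mL) treated with 10 μM compound for 30 min were heated for 3 min over 48°C-58°C. After pooling and extraction in PBS with 0.5% NP-40 at 4°C, soluble protein from a 21,000xg, 90 min spin was quantified by TMTpro 16plex LC-MS/MS with channel sums equalised. Thermal stability is expressed against control samples, from duplicates, as a log2 fold change.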

vorinostat = compound: O=C(CCCCCCC(=O)Nc1ccccc1)NO [vorinostat]
Summary of the method: as §1

[2] = compound: O=C1NC(=O)C(c2cnc3ccccn23)=C1c1cn2c3c(cc(F)cc13)CN(C(=O)N1CCCCC1)CC2
Summary of the method: as §1

[3] = compound: NC(=O)c1cnc(N[C@@H]2CCCC[C@@H]2N)nc1Nc1cccc(-n2nccn2)c1
Summary of the method: as §1

[4] = compound: NC1(c2ccc(-c3nc4ccn5c(=O)[nH]nc5c4cc3-c3ccccc3)cc2)CCC1
Summary of the method: as §1

silmitasertib = compound: O=C(O)c1ccc2c(c1)nc(Nc1cccc(Cl)c1)c1ccncc12 [silmitasertib]
Summary of the method: as §1

citarinostat = compound: O=C(CCCCCCNC(=O)c1cnc(N(c2ccccc2)c2ccccc2Cl)nc1)NO [citarinostat]
Summary of the method: as §1

[5] = compound: c1cc(OCCN2CCCCC2)cc(-c2n[nH]c3ccc(-c4nnc[nH]4)cc23)c1
Summary of the method: as §1

[6] = compound: NC(=O)Nc1cc(-c2cccc(F)c2)sc1C(=O)N[C@H]1CCCNC1
Summary of the method: as §1

entinostat = compound: Nc1ccccc1NC(=O)c1ccc(CNC(=O)OCc2cccnc2)cc1 [entinostat]
Summary of the method: as §1

Measured: log2 fold change

TBC1D10A (UniProt Q9BXI6)
inactive: [1] -0.262 | vorinostat 0.198 | [2] -0.009

STK40 isoform 4 (UniProt Q8N2I9)
inactive: [3] 0.052

TASP1 (UniProt Q9H6P5)
inactive: [4] 0.313 | silmitasertib 0.167 | [2] 0.32

SUSD1 isoform 2 (UniProt Q6UWL2)
inactive: [3] -0.053 | [1] -0.118 | vorinostat 0.056 | citarinostat 0.044 | [5] 0.032

SULT1E1 (UniProt P49888)
inactive: vorinostat 0.145

TAF9B (UniProt Q9HBM6)
inactive: [6] -0.041 | [4] -0.244 | [1] 0.113 | entinostat -0.102 | vorinostat 0.127 | silmitasertib 0.242 | [2] 0.116

SUPT7L (UniProt O94864)
inactive: [4] 0.077 | silmitasertib 0.04

SYS1 (UniProt Q8N2H4)
inactive: vorinostat -0.146 | citarinostat -0.034 | [5] 0.069

TAB2 (UniProt Q9NYJ8)
inactive: [6] 0.056 | [1] -0.17 | entinostat 0.034 | [2] 0.095

STXBP4 (UniProt Q6ZWJ1)
inactive: [1] -0.015 | [2] 0.232

TATDN2 (UniProt Q93075)
inactive: [6] -0.115 | [3] 0.003 | [1] -0.126 | entinostat 0.009 | vorinostat 0.004 | [2] 0.067 | [5] 0.06
active: citarinostat -0.52

STK36 (UniProt Q9NRP7)
inactive: [3] -0.168 | [4] 0.047 | vorinostat 0.087 | silmitasertib -0.175

TANGO6 (UniProt Q9C0B7)
inactive: [6] -0.007 | [3] -0.002 | [4] -0.167 | entinostat 0.035 | citarinostat -0.071 | silmitasertib 0.084 | [2] 0.017 | [5] -0.089

STS (UniProt P08842)
inactive: [3] -0.093 | citarinostat -0.051 | [5] 0.272

TAF5L (UniProt O75529)
inactive: citarinostat 0.004 | [5] -0.024

SYNGR1 isoform 3 (UniProt O43759)
inactive: citarinostat 0.04 | [5] -0.168

STK3 isoform 2 (UniProt Q13188)
inactive: [3] 0.018 | [4] -0.064 | [1] -0.019 | entinostat -0.01 | vorinostat -0.023 | citarinostat 0.028 | silmitasertib 0 | [2] 0.016 | [5] -0.074

STRN3 isoform 2 (UniProt Q13033)
inactive: [3] 0.006 | [4] 0.032 | [1] -0.053 | vorinostat -0.043 | silmitasertib 0.059 | [2] -0.121

TAOK2 (UniProt Q9UL54)
inactive: [4] -0.01 | vorinostat 0.081 | citarinostat 0.056 | silmitasertib -0.009 | [2] 0.184 | [5] 0.12

STYX (UniProt Q8WUJ0)
inactive: vorinostat 0.139

TAF11 (UniProt Q15544)
inactive: [6] 0.04 | [3] 0.046 | [4] 0.03 | entinostat -0.046 | vorinostat -0.003 | silmitasertib 0.035

SYK (UniProt P43405)
inactive: [1] -0.029 | citarinostat -0.029 | [2] 0.075 | [5] -0.123

SUGT1 isoform 2 (UniProt Q9Y2Z0)
inactive: [4] -0.026 | [1] 0.033 | citarinostat -0.13 | silmitasertib -0.011 | [5] -0.028

TAF13 (UniProt Q15543)
inactive: [6] -0.047 | [4] 0.155 | [1] -0.113 | entinostat -0.016 | vorinostat -0.02 | silmitasertib -0.038 | [2] -0.201

STXBP5L (UniProt Q9Y2K9)
inactive: [6] 0.216 | entinostat 0.165 | vorinostat 0.048 | citarinostat 0.085 | [5] -0.195

STK35 (UniProt Q8TDR2)
inactive: [3] -0.139 | [4] -0.299 | silmitasertib 0.129

SUZ12 (UniProt Q15022)
inactive: [3] -0.018 | [4] -0.299 | silmitasertib 0.016

TBC1D12 (UniProt O60347)
inactive: [3] 0.011 | [4] 0.048 | [1] 0.117 | citarinostat -0.013 | silmitasertib 0.205 | [2] 0.027 | [5] 0.033

SUPT5H isoform 2 (UniProt O00267)
inactive: [1] -0.046

3 records drawn at random from those above:
STK35 (UniProt Q8TDR2)
inactive: [3] -0.139 | [4] -0.299 | silmitasertib 0.129

SUZ12 (UniProt Q15022)
inactive: [3] -0.018 | [4] -0.299 | silmitasertib 0.016

TBC1D12 (UniProt O60347)
inactive: [3] 0.011 | [4] 0.048 | [1] 0.117 | citarinostat -0.013 | silmitasertib 0.205 | [2] 0.027 | [5] 0.033

Continuation.

SWI5 (UniProt Q1ZZU3)
inactive: [6] -0.089 | [3] -0.005 | [1] -0.073 | entinostat 0.151 | vorinostat 0.107 | [2] 0.041

SUFU (UniProt Q9UMX1)
inactive: [3] -0.098

STON2 isoform 3 (UniProt Q8WXE9)
inactive: vorinostat -0.2 | citarinostat 0.038 | [5] -0.043

SYP (UniProt P08247)
inactive: [3] 0.013 | [4] -0.008 | [1] 0.005 | vorinostat -0.068 | citarinostat -0.148 | silmitasertib 0.092 | [2] -0.095 | [5] -0.014

STOML1 (UniProt Q9UBI4)
inactive: [1] 0.058 | citarinostat -0.002 | [5] -0.122
